Assay results as given in patent US20020045780A1, “Biologically active spermidine analogues, pharmaceutical compositions and methods of treatment” (priority 1997, published 2002).
Where a name gives a salt, the structure may show the parent alone.

These compounds were tested on L1210 cells (assay: Summation of intracellular analogue and polyamine amine equivalence). Conditions: L1210, 10 μM, 48 hours.
Assay type: cell-based, murine
In the case of `CNCCCCCNCCCCNC` [DM(4,5), 2,7,13-Triazatetradecane Trihydrochloride], the “Picoequivalents of Amine/10^6 cells (× 10^3)” value (from here on “Picoequivalents”) is reported as 20.81 picoequivalents/10^6 cells (×.

Same assay, conditions: L1210, 15 μM, 48 hours
`CCNCCCCCNCCCCNCC` [DE(4,5), 3,8,14-Triazahexadecane Trihydrochloride] was tested, and the “Picoequivalents” value was 14.59 picoequivalents/10^6 cells (×.

Same assay, conditions: L1210, 75 μM, 48 hours
`CCNCCCCCNCCCCCNCC` [DE(5,5), 3,9,15-Triazaheptadecane Trihydrochloride] was tested, and the “Picoequivalents” value was 9.01 picoequivalents/10^6 cells (×.
With `CNCCCCCNCCCCCNC` [DM(5,5), 2,8,14-Triazapentadecane Trihydrochloride] the “Picoequivalents” value was 15.5 picoequivalents/10^6 cells (×.

Same assay, conditions: L1210, 125 μM, 48 hours
`CCNCCCCNCCCCNCC` [DEHSPD, N^1,N^9-Diethylhomospermidine Trihydrochloride] was tested, and the “Picoequivalents” value was 16.92 picoequivalents/10^6 cells (×.

Same assay, conditions: L1210, 500 μM, 48 hours
In the case of `CCNCCCNCCCNCC` [DENSPD, N^1,N^7-Diethylnorspermidine Trihydrochloride], the “Picoequivalents” value is reported as 13.70 picoequivalents/10^6 cells (×.
In the case of `CCNCCCCNCCCNCC` [DESPD, N^1,N^8-Diethylspermidine Trihydrochloride], the “Picoequivalents” value is reported as 14.05 picoequivalents/10^6 cells (×.
For `CNCCCCNCCCCNC` [DMHSPD, N^1,N^9-Dimethylhomospermidine Trihydrochloride], the “Picoequivalents” value was 20.34 picoequivalents/10^6 cells (×.
In the case of `CNCCCNCCCNC` [DMNSPD, N^1,N^7-Dimethylnorspermidine Trihydrochloride], the “Picoequivalents” value is reported as 18.40 picoequivalents/10^6 cells (×.
For `CNCCCCNCCCNC` [DMSPD, N^1,N^8-Dimethylspermidine Trihydrochloride], the “Picoequivalents” value was 16.09 picoequivalents/10^6 cells (×.
For `CCCNCCCCCNCCCCNCCC` [DP(4,5), 4,9,15-Triazaoctadecane Trihydrochloride], the “Picoequivalents” value was 15.15 picoequivalents/10^6 cells (×.
In the case of `CCCNCCCCCNCCCCCNCCC` [DP(5,5), 4,10,16-Triazanonadecane Trihydrochloride], the “Picoequivalents” value is reported as 13.91 picoequivalents/10^6 cells (×.
`CCCNCCCCNCCCCNCCC` [DPHSPD, N^1,N^9-Dipropylhomospermidine Trihydrochloride] was tested, and the “Picoequivalents” value was 15.99 picoequivalents/10^6 cells (×.
`CCCNCCCNCCCNCCC` [DPNSPD, N^1,N^7-Dipropylnorspermidine Trihydrochloride] was tested, and the “Picoequivalents” value was 15.01 picoequivalents/10^6 cells (×.
For `CCCNCCCCNCCCNCCC` [DPSPD, N^1,N^8-Dipropylspermidine Trihydrochloride], the “Picoequivalents” value was 15.33 picoequivalents/10^6 cells (×.
`CCNCCCNCCCCN` [MESPD(N1), N^1-Ethylspermidine Trihydrochloride] was tested, and the “Picoequivalents” value was 16.99 picoequivalents/10^6 cells (×.
With `CCNCCCCNCCCN` [MESPD(N8), N^8-Ethylspermidine Trihydrochloride] the “Picoequivalents” value was 17.99 picoequivalents/10^6 cells (×.
With `CCCNCCCCNCCCCN` [MPHSPD, N^1-Propylhomospermidine Trihydrochloride] the “Picoequivalents” value was 20.55 picoequivalents/10^6 cells (×.
`CCCNCCCNCCCN` [MPNSPD, N^1-Propylnorspermidine Trihydrochloride] was tested, and the “Picoequivalents” value was 17.71 picoequivalents/10^6 cells (×.
In the case of `CCCNCCCNCCCCN` [MPSPD(N1), N^1-Propylspermidine Trihydrochloride], the “Picoequivalents” value is reported as 18.25 picoequivalents/10^6 cells (×.
For `CCCNCCCCNCCCN` [MPSPD(N8), N^8-Propylspermidine Trihydrochloride], the “Picoequivalents” value was 19.59 picoequivalents/10^6 cells (×.
